Test results: PubChem BioAssay AID2283193 (EPA ToxCast); active means hit-call score of the fitted dose curve at least 0.9, where 1 is the maximum; inconclusive means response in the unintended direction; inactive means score below 0.9
Inconclusive means that the source gave no clear call. Where the call is inconclusive, the potency comes from a doubtful curve fit.

By UniProt entry, the sequences of proteins in these tests, tags left out. Where a name states a change or a piece, a line headed by the entry shows the natural chain unless it says otherwise.
UniProt Q05513: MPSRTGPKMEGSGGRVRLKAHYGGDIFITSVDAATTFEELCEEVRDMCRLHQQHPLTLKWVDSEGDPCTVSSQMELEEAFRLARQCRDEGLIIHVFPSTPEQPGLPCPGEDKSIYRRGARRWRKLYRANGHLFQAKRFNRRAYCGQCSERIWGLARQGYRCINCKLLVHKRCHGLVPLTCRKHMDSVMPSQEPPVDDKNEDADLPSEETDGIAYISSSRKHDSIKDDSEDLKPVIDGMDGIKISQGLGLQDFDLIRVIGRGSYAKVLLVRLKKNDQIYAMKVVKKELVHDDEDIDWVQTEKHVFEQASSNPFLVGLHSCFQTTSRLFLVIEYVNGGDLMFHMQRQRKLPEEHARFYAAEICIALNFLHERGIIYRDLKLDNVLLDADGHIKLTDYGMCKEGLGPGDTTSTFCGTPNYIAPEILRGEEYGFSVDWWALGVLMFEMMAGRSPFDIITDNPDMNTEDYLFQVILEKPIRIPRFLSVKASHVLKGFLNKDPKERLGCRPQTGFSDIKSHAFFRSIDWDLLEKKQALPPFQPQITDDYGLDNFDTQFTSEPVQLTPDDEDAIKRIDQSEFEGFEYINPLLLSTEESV

Target: human Protein Kinase C, zeta (PKCz), PRKCZ (gene 5590) (UniProt Q05513)
Test: NVS_ENZ_hPKCz: NovaScreen (NVS) Enzymatic Assay for human Protein Kinase C, zeta (PKCz)
Description: NVS_ENZ_hPKCz is a biochemical, single-readout assay that uses extracted gene-proteins in a cell-free assay. Measurements were taken 1 hour after chemical dosing in a 384-well plate.NVS_ENZ_hPKCz is one of one assay component(s) measured or calculated from the NVS_ENZ_hPKCz assay. It is designed to make measurements of enzyme activity, a form of enzyme reporter, as detected with fluorescence intensity signals by Fluorescence and electrophoretic mobility shift technology.Data from the assay component NVS_ENZ_hPKCz was analyzed into 1 assay endpoint. This assay endpoint, NVS_ENZ_hPKCz, was analyzed in the positive analysis fitting direction relative to DMSO as the negative control and baseline of activity. Using a type of enzyme reporter, loss-of-signal activity can be used to understand changes in the enzymatic activity as they relate to the gene PRKCZ. Furthermore, this assay endpoint can be referred to as a primary readout, because this assay has produced multiple assay endpoints where this one serves a enzymatic activity function. To generalize the intended target to other relatable targets, this assay endpoint is annotated to the kinase intended target family, where the subfamily is serine/threonine kinase. […]

Compound	AC50
S=C([S-])NCCNC(=S)[S-].[Mn+2]	inconclusive: 3.01 µM
S=C(S)NCCNC(=S)S.[Mn+2].[S-]C([S-])=NCCN=C([S-])[S-].[Zn+2]	inconclusive: 4.96 µM
